From publication PMC12297241
Results are given in words; binding and its absence hold for the method and conditions named. Binding seen in cells or lysates may run through a third protein. Some results given as binding are weak or reduced against the parent protein; the word gives no strength.

Amino acid sequences for entries named in this document (tags omitted). A change or cut given only in a name is not applied to a line headed by its entry.
UniProt Q9Y572: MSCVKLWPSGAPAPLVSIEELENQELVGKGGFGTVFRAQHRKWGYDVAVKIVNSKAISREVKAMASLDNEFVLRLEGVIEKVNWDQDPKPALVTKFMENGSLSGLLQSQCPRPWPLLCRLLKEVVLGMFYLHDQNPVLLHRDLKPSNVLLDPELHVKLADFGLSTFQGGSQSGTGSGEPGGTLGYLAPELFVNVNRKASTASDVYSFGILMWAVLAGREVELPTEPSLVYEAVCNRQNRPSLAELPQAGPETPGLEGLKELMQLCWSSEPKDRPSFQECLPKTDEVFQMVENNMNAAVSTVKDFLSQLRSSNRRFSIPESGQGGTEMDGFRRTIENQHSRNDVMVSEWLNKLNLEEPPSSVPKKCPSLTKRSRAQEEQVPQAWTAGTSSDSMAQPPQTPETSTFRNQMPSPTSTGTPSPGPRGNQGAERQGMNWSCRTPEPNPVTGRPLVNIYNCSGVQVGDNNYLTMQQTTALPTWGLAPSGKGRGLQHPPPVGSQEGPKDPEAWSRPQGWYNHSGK
UniProt Q13546: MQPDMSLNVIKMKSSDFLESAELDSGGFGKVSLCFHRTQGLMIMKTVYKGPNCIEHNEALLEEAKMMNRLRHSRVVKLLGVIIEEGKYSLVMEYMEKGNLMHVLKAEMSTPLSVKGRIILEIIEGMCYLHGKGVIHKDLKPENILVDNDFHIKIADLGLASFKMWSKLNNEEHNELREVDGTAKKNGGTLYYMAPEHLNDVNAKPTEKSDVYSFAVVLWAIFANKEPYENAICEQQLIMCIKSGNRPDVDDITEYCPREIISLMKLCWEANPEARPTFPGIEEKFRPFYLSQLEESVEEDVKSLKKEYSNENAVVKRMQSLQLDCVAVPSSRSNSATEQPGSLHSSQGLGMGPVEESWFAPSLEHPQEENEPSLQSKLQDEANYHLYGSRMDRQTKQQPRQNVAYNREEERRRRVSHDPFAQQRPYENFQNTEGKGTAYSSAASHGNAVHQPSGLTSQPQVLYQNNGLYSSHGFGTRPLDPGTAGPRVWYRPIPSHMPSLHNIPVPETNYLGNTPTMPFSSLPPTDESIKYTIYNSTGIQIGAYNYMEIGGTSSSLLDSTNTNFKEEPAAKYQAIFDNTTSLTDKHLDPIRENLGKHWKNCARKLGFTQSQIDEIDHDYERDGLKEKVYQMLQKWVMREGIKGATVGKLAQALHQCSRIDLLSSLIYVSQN

Legend:
[1] = target: Flag-RIPK3 (not stated (human or mouse cDNA cloned)) (UniProt Q9Y572); experiment: co-IP; HEK293T cells co-transfected for 24 h with Flag- and Myc-tagged expression vectors; lysates immunoprecipitated overnight with anti-Flag beads at 4 °C; immunoblot
[2] = target: Flag-RIPK1 S213E stably expressed in HT-29 RIPK1-KO cells (human) (UniProt Q13546); experiment: co-IP; HT-29 RIPK1-KO cells stably expressing Flag-RIPK1, stimulated with TSZ (TNF + Smac mimetic + zVAD) for indicated time points; lysates immunoprecipitated overnight with anti-Flag beads at 4 °C (Complex II); immunoblot
[3] = target: Flag-RIPK1 wild-type stably expressed in HT-29 RIPK1-KO cells (human) (UniProt Q13546); experiment: as above

| Substance | binding [1] | binding [2] | binding [3] |
| --- | --- | --- | --- |
| RIPK1-WT overexpressed in HEK293T cells (Flag-RIPK1-WT or Myc-RIPK1-WT) (from UniProt Q13546 1-671) | binds |  |  |
| RIPK3, endogenous in HT-29 cells (from UniProt Q9Y572 1-518) |  | no binding | binds |
